# Laboratory results reported in PubChem BioAssay AID540256 (National Center for Advancing Translational Sciences (NCATS), 2011).
# The whole screen tested about 300,000 compounds, of which about 3,700 (1.2%) were called active. This list was built around the results that the source calls inconclusive (neither active nor inactive); the mix of calls is not that of the screen. The call rests on the fitted dose curve; tested in HEK293 cells. Where the call is inconclusive, the potency comes from a doubtful curve fit.
# Experiment: qHTS for Inhibitors of binding or entry into cells for Lassa Virus; further: nearly all actives have a fitted effect of over 50% in size
# Details: Lassa virus pseudotype entry inhibition, cell reporter; activity change, negative = inhibition: at 37.9 µM (top of the series) unless noted
# On the % scale 0 is the no-effect control and ±100 the full control effect; potency means the concentration at half of the fitted maximal effect.
SMILES,Potency,"activity change, negative = inhibition"
CS(=O)(=O)CCNCc1ccoc1-c1ccc2ncnc(Nc3ccc(OCc4ccccc4)cc3)c2c1,"inconclusive: 1.77 µM [inhibitor, full curve, poor fit]",
Cn1c(=O)c2c(-c3ccc(C(C)(C)C)cc3)n(N3CCOCC3)cc2n(C)c1=O,"inconclusive: 6.31 µM [inhibitor, single point]",
N#CCCN1CCN(C(CNS(=O)(=O)c2ccc(Cl)cc2)c2ccccc2)CC1 (stereo unspecified),,inactive: -8.54%
O=C(Nc1ccccc1O)c1cc(S(=O)(=O)N2CCCC2)ccc1Cl,,inactive: -28.8% [at 46.1 µM]
O=C(N/N=C/c1cccc(Oc2ccc([N+](=O)[O-])cc2[N+](=O)[O-])c1)c1cncc(Br)c1,"inconclusive: 23.1 µM [inhibitor, partial curve, poor fit]",
Cc1ccc(Cl)cc1NC(=O)NCc1cccn1Cc1ccc(F)cc1,"inconclusive: 5.62 µM [inhibitor, single point]",
CCn1cc(S(=O)(=O)Nc2ncccn2)cn1,"inconclusive: 0.562 µM [activator, full curve, poor fit]",
CCN(C(=O)Cn1nnc(-c2ccccc2)n1)C1CCS(=O)(=O)C1 (stereo unspecified),"inconclusive: 20 µM [activator, partial curve, poor fit]",
Cc1ccc(C(=O)CN(Cc2ccccc2)C2=NCCS2)cc1,,inactive: 5.2%
COc1cc2c3c(n(C)c(=O)c2cc1OC)-c1cc2c(cc1C3=O)OCO2,"inconclusive: 0.316 µM [inhibitor, full curve]",
Cc1cc(C)c(C(=O)COC(=O)CCNS(=O)(=O)c2c(Cl)cccc2Cl)cc1C,"inconclusive: 7.08 µM [activator, full curve, poor fit]",
Oc1ccc(/C=N/NC(=S)NCc2ccco2)cc1,"inconclusive: 8.91 µM [inhibitor, partial curve]",
Cc1cc(Cl)c2oc(C(=O)NCC(C)(C)N3CCOCC3)c(C)c2c1,"inconclusive: 22.4 µM [inhibitor, single point]",
O=C(Nc1ccc(-c2nc3ccccc3s2)c(OC(=O)c2ccccc2)c1)c1ccccc1,"inconclusive: 20.6 µM [activator, partial curve, poor fit]",
CC(NC(=O)Nc1ccccc1)C(c1ccccc1)N1CCOCC1 (stereo unspecified),,inactive: 7.53%
COc1cc2c(cc1OC)C(C)N(C(=O)c1cccs1)CC2 (stereo unspecified),"inconclusive: 35.5 µM [inhibitor, single point]",
COC(=O)N1CCCc2cc(S(=O)(=O)N3CCN(c4ccccc4)CC3)ccc21,"inconclusive: 7.94 µM [inhibitor, partial curve, poor fit]",
CN(C)c1ccc(CNC(=O)c2cnc3sc(N4CCCCCC4)nn3c2=O)cc1,"inconclusive: 2.24 µM [inhibitor, full curve, poor fit]",
CCn1cc(S(=O)(=O)N2CCN(c3ccc(Cl)cc3)CC2)cn1,,inactive: -23.5%
CC(C)CNC(=O)c1oc2ccccc2c1COc1ccccc1,"inconclusive: 16.4 µM [inhibitor, partial curve, poor fit]",
CC(C)Oc1ccc(Cn2c(=O)sc3ccccc32)cc1,,inactive: 9.42%
Cn1cnc2cc(NC(=O)COc3ccccc3)ccc21,"inconclusive: 35.5 µM [activator, single point]",

SMILES,Potency,"activity change, negative = inhibition"
c1coc(CNC2C3CC4CC(C3)CC2C4)c1 (stereo unspecified),"inconclusive: 0.517 µM [activator, full curve, poor fit]",
C=C(C)CSc1nnc(-c2cccc(Cl)c2)n1N,"inconclusive: 29.1 µM [activator, single point]",
CC(=O)C(=Cc1ccc(C(=O)O)cc1)C(C)=O,"inconclusive: 8.91 µM [activator, partial curve, poor fit]",
COc1ccc(C(=O)CSc2nnc(CNc3ccc(C)cc3C)n2Cc2ccco2)cc1,"inconclusive: 20.6 µM [inhibitor, single point]",
Cn1c(=O)c2c(SCC(=O)NCc3ccc(F)cc3)nc(-c3ccccc3Cl)nc2n(C)c1=O,,inactive: 5.64% [at 46.1 µM]
CCc1ccc(OCc2cccc(C(=O)N/N=C\c3cnn(C)c3C)c2)cc1,"inconclusive: 0.891 µM [activator, full curve, poor fit]",
Nc1ccc(Sc2cnn(-c3ccccc3)c(=O)c2Cl)cc1,"inconclusive: 20 µM [inhibitor, single point]",
Cc1ccc(S(=O)(=O)N(C)C)cc1NC(=O)c1c(-c2c(F)cccc2Cl)noc1C,"inconclusive: 7.08 µM [inhibitor, partial curve, poor fit]",
O=S(=O)(Nc1cc(Sc2ncn[nH]2)c(O)c2ccccc12)c1ccccc1,"inconclusive: 1.12 µM [inhibitor, full curve, poor fit]",
COC(=O)c1cn(CCOc2ccccc2)c2ccccc12,"inconclusive: 1.12 µM [activator, partial curve]",
COc1cccc(CN2CCN(Cc3cccc(Br)c3)CC2)c1OC,"inconclusive: 0.501 µM [inhibitor, single point]",
CC(C)(C)c1ccc(CN(Cc2ccccc2)C(c2ccccn2)c2nnnn2C(C)(C)C)cc1 (stereo unspecified),active: 5.62 µM,
N/C(Cc1ccc([N+](=O)[O-])cc1)=N\OC(=O)c1ccc2ccccc2c1,"inconclusive: 15.8 µM [inhibitor, single point]",
O=C(Nc1ccccc1F)c1coc(=O)c(Br)c1,,inactive: -7.95%
O=C(CCN1C(=O)/C(=C\c2ccccc2)SC1=S)NNC(=O)c1cccnc1,"inconclusive: 12.6 µM [inhibitor, single point]",
O=C(NN1C(=O)C2C3c4ccccc4C(c4ccccc43)C2C1=O)C1CC1 (stereo unspecified),,inactive: -22.6% [at 46.1 µM]
CCOc1ccc(CCNC(=O)COC(=O)c2nn(C)c(=O)c3ccccc23)cc1OCC,,inactive: -4.59%
COc1cc(OC)cc(C(=O)NCCSC2CCCCC2)c1,,inactive: 22% [at 46.1 µM]
CN(C)c1ccc(CNc2ccc3c(c2)ncn3C(C)(C)C)cc1,"inconclusive: 20 µM [inhibitor, single point]",
Cc1ccc(Cn2nnnc2CN2CCC(c3nc4ccc(Cl)cc4[nH]3)CC2)cc1,"inconclusive: 14.1 µM [inhibitor, partial curve, poor fit]",
COc1ccc(-c2noc(-c3ccc(C)cc3Cl)n2)cc1OC,,inactive: 13.6% [at 46.1 µM]
NC(=O)c1ccc(CSc2nc3ccccc3s2)cc1,"inconclusive: 28.2 µM [inhibitor, single point]",

SMILES,Potency,"activity change, negative = inhibition"
CCOc1ccc(C(=O)NCC2CCCO2)cc1 (stereo unspecified),"inconclusive: 2.59 µM [activator, full curve, poor fit]",
CCC(CC)c1nnc(NC(=O)C2CCN(C(=O)c3ccco3)CC2)s1,"inconclusive: 1.12 µM [inhibitor, full curve, poor fit]",
O=C(NCc1cccnc1)C1CCN(S(=O)(=O)c2cc(Cl)ccc2Cl)CC1,"inconclusive: 35.5 µM [inhibitor, single point]",
Cc1nc2c(-c3ccccc3)c(C)nn2c(C)c1CCC(=O)Nc1ccccc1F,"inconclusive: 8.91 µM [inhibitor, partial curve, poor fit]",
O=C(Nc1ccc2c(c1)C(=O)N(CC1CCCO1)C2=O)c1cccc(Br)c1 (stereo unspecified),"inconclusive: 2.06 µM [activator, full curve, poor fit]",
COc1ccccc1NS(=O)(=O)c1cccc(NC(=O)C2CC(=O)N(Cc3ccccc3)C2)c1 (stereo unspecified),"inconclusive: 35.5 µM [inhibitor, single point]",
COC(=O)c1ccc(COc2ccc(C=O)cc2OC)o1,,inactive: 29.6%
O=C(NCc1nnc(SCc2ccc(F)cc2)n1-c1ccccc1)C12CC3CC(CC(C3)C1)C2,"inconclusive: 15.8 µM [inhibitor, single point]",
Cc1ccccc1C1=CCN(c2ncc(NC(=O)c3ccc(Cl)cc3)cc2C(=O)O)CC1,,inactive: 16.7% [at 46.1 µM]
Cc1ccccc1C(=O)OCC(=O)NCc1ccco1,,inactive: -4.47%
CC(C)c1ccc(N2C(=O)NC(=O)/C(=C/C=C/c3ccco3)C2=O)cc1,"inconclusive: 16.4 µM [inhibitor, partial curve]",
Brc1ccc(C2=CSC3=NCCN23)cc1,"inconclusive: 6.31 µM [inhibitor, partial curve, poor fit]",
COc1cc(OC)c(OC)cc1/C=N/n1c(C)nc2ccccc2c1=O,,inactive: -2.33% [at 46.1 µM]
O=S(=O)(c1ccc(NC(=S)N/N=C/c2ccc(O)c(O)c2)cc1)N1CCOCC1,"inconclusive: 10 µM [inhibitor, partial curve, poor fit]",
CO/N=C/C(NC(=O)c1ccc(C(F)(F)F)cc1)C(=O)OC (stereo unspecified),"inconclusive: 14.1 µM [inhibitor, single point]",
CCCCC(=O)Nc1nnc(SCC(=O)NCC2CCCO2)s1 (stereo unspecified),,inactive: 19.2%
Cc1ccc(SCc2nc(-c3ccc(C(=O)Nc4cc(C)ccc4C)cc3)oc2C)cc1,"inconclusive: 5.62 µM [inhibitor, single point]",
O=C(/C(N=Nc1cccc(C(F)(F)F)c1)=C(/O)c1cccs1)C(F)(F)F,"inconclusive: 20 µM [inhibitor, single point]",
O=C(N/N=C/C=C/c1ccccc1)C1CC1(c1ccccc1)c1ccccc1 (stereo unspecified),"inconclusive: 20.6 µM [inhibitor, single point]",
CCC1(C)CC(C(N)=S)CCO1 (stereo unspecified),"inconclusive: 3.55 µM [inhibitor, single point]",
Cc1ccc(NC(=O)c2c(O)c3ccccc3n(C)c2=O)nc1,"inconclusive: 7.3 µM [activator, single point]",
Cc1ccc(-n2cc(CN3CCN(Cc4nccn4C)CC3)c(-c3cccc(C)c3)n2)cc1,"inconclusive: 22.4 µM [inhibitor, single point]",

# A few values from the results shown.
# CO/N=C/C(NC(=O)c1ccc(C(F)(F)F)cc1)C(=O)OC (stereo unspecified) – Potency: inconclusive: 14.1 µM [inhibitor, single point]
# O=C(Nc1ccc(-c2nc3ccccc3s2)c(OC(=O)c2ccccc2)c1)c1ccccc1 – Potency: inconclusive: 20.6 µM [activator, partial curve, poor fit]
